Data from patent publication EP1666595A1.
Results are given in words; binding and its absence hold for the method and conditions named. For part of these data: Binding seen in cells or lysates may run through a third protein. Some binding calls cover weakened binding; strength is not graded here.

Protein sequences, listed by entry. Tags and fused reporters are not part of them. Lines headed by an entry give the natural chain unless they say otherwise; changes in a name come on top. Residues count along the entry.
UniProt Q60631: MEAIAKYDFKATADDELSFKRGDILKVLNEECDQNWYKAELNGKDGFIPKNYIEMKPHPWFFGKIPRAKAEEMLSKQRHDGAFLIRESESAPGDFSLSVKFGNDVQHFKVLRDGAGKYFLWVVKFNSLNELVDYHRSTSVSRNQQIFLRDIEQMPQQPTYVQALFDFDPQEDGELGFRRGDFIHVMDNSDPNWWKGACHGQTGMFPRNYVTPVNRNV
UniProt P26450, residues 2-724: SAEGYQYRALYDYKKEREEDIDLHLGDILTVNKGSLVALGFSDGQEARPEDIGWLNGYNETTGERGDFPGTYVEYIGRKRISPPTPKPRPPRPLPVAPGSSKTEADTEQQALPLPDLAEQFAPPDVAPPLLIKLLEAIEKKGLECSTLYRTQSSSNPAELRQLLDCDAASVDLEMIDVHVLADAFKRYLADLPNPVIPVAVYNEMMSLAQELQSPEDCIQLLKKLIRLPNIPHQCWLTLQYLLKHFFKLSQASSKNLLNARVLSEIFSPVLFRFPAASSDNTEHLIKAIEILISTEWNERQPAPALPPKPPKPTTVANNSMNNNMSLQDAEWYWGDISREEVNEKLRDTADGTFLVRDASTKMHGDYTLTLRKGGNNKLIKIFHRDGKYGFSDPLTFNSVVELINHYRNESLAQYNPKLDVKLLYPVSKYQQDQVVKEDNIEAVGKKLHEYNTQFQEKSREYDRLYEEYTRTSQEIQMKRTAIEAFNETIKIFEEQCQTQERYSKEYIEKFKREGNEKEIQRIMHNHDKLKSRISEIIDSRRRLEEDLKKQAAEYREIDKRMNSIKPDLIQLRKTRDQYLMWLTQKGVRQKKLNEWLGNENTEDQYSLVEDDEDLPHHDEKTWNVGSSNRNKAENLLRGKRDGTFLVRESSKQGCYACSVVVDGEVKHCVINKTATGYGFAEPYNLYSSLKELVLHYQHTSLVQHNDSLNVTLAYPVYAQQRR
UniProt P27986, residues 2-724: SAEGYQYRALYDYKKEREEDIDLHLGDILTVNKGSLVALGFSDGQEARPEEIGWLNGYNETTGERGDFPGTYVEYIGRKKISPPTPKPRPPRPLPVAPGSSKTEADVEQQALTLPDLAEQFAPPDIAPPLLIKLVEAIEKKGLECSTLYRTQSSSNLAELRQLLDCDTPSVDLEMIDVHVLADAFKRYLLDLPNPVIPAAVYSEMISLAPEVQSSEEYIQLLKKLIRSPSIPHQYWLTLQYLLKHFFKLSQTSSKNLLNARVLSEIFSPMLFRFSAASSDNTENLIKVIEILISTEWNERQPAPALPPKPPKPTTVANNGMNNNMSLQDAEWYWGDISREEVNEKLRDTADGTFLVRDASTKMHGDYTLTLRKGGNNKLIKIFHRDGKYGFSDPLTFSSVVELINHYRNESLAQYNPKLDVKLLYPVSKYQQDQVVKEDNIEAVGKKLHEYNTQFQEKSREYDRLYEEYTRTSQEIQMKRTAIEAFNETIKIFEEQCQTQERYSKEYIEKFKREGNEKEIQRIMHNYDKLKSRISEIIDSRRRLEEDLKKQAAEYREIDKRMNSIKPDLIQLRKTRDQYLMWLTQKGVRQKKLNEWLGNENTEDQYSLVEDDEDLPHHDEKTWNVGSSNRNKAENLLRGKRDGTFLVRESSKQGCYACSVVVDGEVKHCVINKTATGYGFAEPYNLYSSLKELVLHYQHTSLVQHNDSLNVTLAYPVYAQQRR
UniProt Q9Z1S8: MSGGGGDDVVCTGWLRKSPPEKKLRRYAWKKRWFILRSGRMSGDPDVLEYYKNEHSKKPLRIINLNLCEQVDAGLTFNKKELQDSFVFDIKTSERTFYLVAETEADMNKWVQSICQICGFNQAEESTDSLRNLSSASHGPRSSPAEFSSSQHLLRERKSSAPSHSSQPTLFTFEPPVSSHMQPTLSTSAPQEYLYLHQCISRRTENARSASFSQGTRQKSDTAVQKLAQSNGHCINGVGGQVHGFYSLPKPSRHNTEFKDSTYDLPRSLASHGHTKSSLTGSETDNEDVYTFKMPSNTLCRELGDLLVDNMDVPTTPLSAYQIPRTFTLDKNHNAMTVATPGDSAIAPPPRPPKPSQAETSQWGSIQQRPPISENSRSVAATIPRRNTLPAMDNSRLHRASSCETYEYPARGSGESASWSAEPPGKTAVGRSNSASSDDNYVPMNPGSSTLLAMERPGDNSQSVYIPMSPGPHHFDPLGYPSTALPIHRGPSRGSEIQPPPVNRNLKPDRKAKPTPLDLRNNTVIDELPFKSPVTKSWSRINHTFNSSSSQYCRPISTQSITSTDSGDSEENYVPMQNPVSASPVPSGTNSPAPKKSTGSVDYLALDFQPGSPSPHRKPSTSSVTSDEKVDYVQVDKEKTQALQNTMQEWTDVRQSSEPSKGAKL
UniProt Q9UQC2: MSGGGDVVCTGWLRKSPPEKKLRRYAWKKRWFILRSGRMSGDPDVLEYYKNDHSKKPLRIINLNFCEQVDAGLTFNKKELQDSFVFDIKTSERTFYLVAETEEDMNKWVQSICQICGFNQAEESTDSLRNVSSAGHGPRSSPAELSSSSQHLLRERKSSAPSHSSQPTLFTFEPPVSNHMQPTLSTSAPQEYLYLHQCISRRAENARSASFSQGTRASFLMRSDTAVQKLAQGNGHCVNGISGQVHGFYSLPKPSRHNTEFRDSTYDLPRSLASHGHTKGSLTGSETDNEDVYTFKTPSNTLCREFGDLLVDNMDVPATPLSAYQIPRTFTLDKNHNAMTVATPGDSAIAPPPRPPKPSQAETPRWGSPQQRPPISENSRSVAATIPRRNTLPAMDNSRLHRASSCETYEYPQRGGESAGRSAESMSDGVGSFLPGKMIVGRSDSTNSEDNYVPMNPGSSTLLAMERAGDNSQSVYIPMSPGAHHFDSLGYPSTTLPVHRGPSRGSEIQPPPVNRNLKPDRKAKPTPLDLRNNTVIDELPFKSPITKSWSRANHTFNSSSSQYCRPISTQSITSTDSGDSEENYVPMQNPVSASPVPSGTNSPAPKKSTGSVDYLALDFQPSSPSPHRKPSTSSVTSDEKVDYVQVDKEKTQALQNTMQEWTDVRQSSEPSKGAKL

Key:
[1] = target: Grb2 (endogenous, in BaF3 cells) (UniProt Q60631); assay: co-immunoprecipitation, Gab2HA-transfected BaF3 cells, with and without IL-3
[2] = target: T1, Shc (endogenous, in BaF3 cells) (UniProt P98083); assay: co-immunoprecipitation, Gab2HA-transfected IL-3-stimulated BaF3 cells
T1 sequence (looked up): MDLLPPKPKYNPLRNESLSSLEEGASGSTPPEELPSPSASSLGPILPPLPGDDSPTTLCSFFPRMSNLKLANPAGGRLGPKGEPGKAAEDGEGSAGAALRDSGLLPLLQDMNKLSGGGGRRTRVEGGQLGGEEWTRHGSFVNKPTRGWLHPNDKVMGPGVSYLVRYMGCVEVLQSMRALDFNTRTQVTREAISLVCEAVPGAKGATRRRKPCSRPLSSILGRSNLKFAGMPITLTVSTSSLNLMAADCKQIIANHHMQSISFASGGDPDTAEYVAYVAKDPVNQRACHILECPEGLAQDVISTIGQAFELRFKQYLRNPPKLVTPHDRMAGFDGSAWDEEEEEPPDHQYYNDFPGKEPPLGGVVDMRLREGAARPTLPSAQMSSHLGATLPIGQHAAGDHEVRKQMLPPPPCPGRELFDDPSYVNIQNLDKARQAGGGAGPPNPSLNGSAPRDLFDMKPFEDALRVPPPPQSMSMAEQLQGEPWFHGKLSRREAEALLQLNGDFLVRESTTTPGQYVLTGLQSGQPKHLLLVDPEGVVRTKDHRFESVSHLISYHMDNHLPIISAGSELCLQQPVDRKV

[3] = target: p85 subunit of PI-3K (endogenous, in BaF3 and P210BCR-ABL BaF3 cells) (UniProt P26450); assay: as above
[4] = target: T1, Shc (endogenous, in BaF3 cells); assay: co-immunoprecipitation, transfected BaF3 cells
[5] = target: p85 subunit of PI-3K (endogenous, in BaF3 and P210BCR-ABL BaF3 cells) (UniProt P26450); assay: co-immunoprecipitation, transfected BaF3 cells
[6] = target: p85 (endogenous, in MDA-MB-486 cells) (UniProt P27986); assay: Gab2 immunoprecipitation followed by immunoblotting with p85 antibodies

For “Gab2HA (HA-tagged wild type Gab2) (from UniProt Q9Z1S8 1-665)”, the binding [1] was “binds”, the binding [2] was “binds” and the binding [3] was “binds”.
In the case of “Gab2ΔY2HA (Gab2 C-terminal deletion mutant with C-terminal HA tag) (from UniProt Q9Z1S8 1-602)”, the binding [4] is reported as “binds” and the binding [5] is reported as “binds”.
“Gab2 (endogenous, in Kit225, Jurkat and MDA-MB-486 cells) (from UniProt Q9UQC2 1-676)” was tested, and the binding [6] was “binds”.
